Source: the supplement of paper PMC3682954
Values joined by “and” are separate entries in the source; they are usually repeats but may differ in a detail not shown here. Identical values can stand only once. Counter-ions that a name gives are not always drawn. ± gives the standard deviation of the averaged measurements. The list shows a part of the results. Repeats are few or missing, and single values can be far off.

Tested on: RAW 264.7
Experiment: HMGB1-induced TNF-alpha production relative to HMGB1-stimulated control; higher = more TNF-alpha secretion (less inhibition)
Conditions: stimulus: HMGB1 5 ug/ml, 18 h
[1] = compound concentration: 1 ug/ml

Row | Compound | HMGB1-induced TNF-alpha production (compound concentration: 3 uM) | HMGB1-induced TNF-alpha production [1] [%]
1 | Clc1ccc(N2CCN(Cc3c[nH]c4ncccc34)CC2)cc1 [L-745,870 hydrochloride] | 80.2% | –
2 | CCn1cnc2c(Nc3cccc(Cl)c3)nc(N[C@@H]3CCCC[C@@H]3N)nc21 | 76.5% | –
3 | NCCCNCCSP(=O)(O)O | 93.8% | –
4 | NCCCNCCSP(=O)(O)O [Amifostine] | 90.7 ± 12% | –
5 | CC1OC(OC2/C=C/C=C/C=C/C=C/CC/C=C/C=C/[C@H](C)[C@@H](O)[C@@H](C)[C@H](C)OC(=O)CC(O)CC(O)CC(O)CCC(O)C(O)C[C@]3(O)CC(O)C(C(=O)O)C(C2)O3)C(O)C(N)C1O (stereo partly drawn) [Nystatine] | 59.7% | –
6 | O=[N+]([O-])c1ccc(O)c([N+](=O)[O-])c1 | 78.6% | –
7 | CN1CC[C@]2(c3cccc(O)c3)Cc3nc4ccccc4cc3C[C@H]2C1 | 52.5% | –
8 | O=S1(=O)N(CCN2CC=C(c3c[nH]c4cc(F)ccc34)CC2)c2cccc3c2N1CCC3 | 114% | –
9 | NCCC(O)C(=O)NC1CC(N)C(OC2OC(CN)C(O)[C@H](O)[C@@H]2N)[C@H](OC2O[C@H](CO)[C@@H](O)[C@@H]2O)[C@@H]1O (stereo partly drawn) [Butirosin disulfate salt] | 98.5% | –
10 | NCCc1c[nH]c2ccc(C(N)=O)cc12 [5-Carboxamidotryptamine maleate] | 81.4% | –
11 | C=C1[C@@H](C)[C@H]2[C@H](Cc3ccccc3)NC(=O)[C@]23OC(=O)/C=C/C(=O)CCC[C@@H](C)C/C=C/[C@H]3[C@@H]1O | 79.8% | –
12 | Nc1ccc([As](=O)(O)O)cc1 | 96% | –
13 | CN[C@@H](Cc1c[nH]c2ccccc12)C(=O)O [L-abrine] | – | 73.7
14 | CC(=O)Nc1cc([As](=O)(O)O)ccc1O | 88.2 ± 12% | –
15 | Cc1cc2c(C(C)C)c(O)c(O)c(C=O)c2c(O)c1-c1c(C)cc2c(C(C)C)c(O)c(O)c(C=O)c2c1O | 204% | 66.4
16 | Cc1cc2c(C(C)C)c(O)c(O)c(C=O)c2c(O)c1-c1c(C)cc2c(C(C)C)c(O)c(O)c(C=O)c2c1O [Gossypol] | 321% | –
17 | CCCN1CC[C@@H]2c3cc(O)ccc3CC[C@@H]21 (racemic) [cis(+/-)-8-OH-PBZI hydrobromide] | 93.1% | –
18 | O=c1[nH]c2ccccc2n1C1CCN(CCCC(c2ccc(F)cc2)c2ccc(F)cc2)CC1 [Pimozide] | 62.9 ± 11% | –
19 | O=c1[nH]c2ccccc2n1C1CCN(CCCC(c2ccc(F)cc2)c2ccc(F)cc2)CC1 | 78.1% | –
20 | CC(=O)[O][Hg][c]1ccccc1 | -1.4 ± 1.3% | –
21 | C=CCN1CC[C@]23CCCC[C@H]2[C@H]1Cc1ccc(O)cc13 [Levallorphan] | 119% | –
22 | C=CCN1CC[C@]23CCCC[C@H]2[C@H]1Cc1ccc(O)cc13 [Levallorphan tartrate] | 107% | –
23 | CC(=O)NCCc1c[nH]c2ccccc12 [N-Acetyltryptamine] | 86.4% | –
24 | C[C@]12CC[C@@H](O)C[C@H]1CC[C@@H]1[C@@H]2CC[C@]2(C)C(=O)CC[C@@H]12 [3-alpha-Hydroxy-5-beta-androstan-17-one] | 130% | –
25 | c1cc2c(cc1[C@H]1OC[C@H]3[C@@H]1CO[C@H]3c1ccc3c(c1)OCO3)OCO2 [(-)-Asarinin] | – | 55.2

Row | Compound | HMGB1-induced TNF-alpha production (compound concentration: 3 uM) | HMGB1-induced TNF-alpha production [1] [%]
26 | O=C(c1ccccc1)N1CC2CC(C1)c1cccc(=O)n1C2 (stereo not drawn) | – | 79.8
27 | C[C@@H]1O[C@@H](O[C@@H]2C=C3CC[C@@H]4[C@H](CC[C@]5(C)[C@@H](c6ccc(=O)oc6)CC[C@]45O)[C@@]3(C)CC2)[C@H](O)[C@H](O)[C@H]1O | 91.9% | –
28 | C[C@@H]1O[C@@H](O[C@@H]2C=C3CC[C@@H]4[C@H](CC[C@]5(C)[C@@H](c6ccc(=O)oc6)CC[C@]45O)[C@@]3(C)CC2)[C@H](O)[C@H](O)[C@H]1O [proscillaridin A] | – | 70.1
29 | C[C@@H]1O[C@@H](O[C@@H]2C=C3CC[C@@H]4[C@H](CC[C@]5(C)[C@@H](c6ccc(=O)oc6)CC[C@]45O)[C@@]3(C)CC2)[C@H](O)[C@H](O)[C@H]1O [Proscillaridin A] | 97% | –
30 | CN(C)C(=O)Oc1ccc[n+](C)c1 [Pyridostigmine bromide] | 97% | –
31 | CN(C)C(=O)Oc1ccc[n+](C)c1 | 86.5% | –
32 | C#CCN(C)[C@H](C)Cc1ccccc1 [Selegiline hydrochloride] | 84.4% | –
33 | C#CCN(C)[C@H](C)Cc1ccccc1 [Benzeneethanamine, N,Alpha-dimethyl-N-2-propynyl-(R)- [CAS]] | 102% | –
34 | C#CCN(C)[C@H](C)Cc1ccccc1 | 80% | –
35 | C=C[C@H]1CN2CC[C@H]1C[C@H]2c1[nH]c2ccccc2c1CCO [Cinchonamine] | – | 76.7
36 | CN(C)C(=O)Oc1cccc([N+](C)(C)C)c1 [Neostigmine] | 126% | –
37 | CN(C)C(=O)Oc1cccc([N+](C)(C)C)c1 | 92.4% | –
38 | CN(C)C(=O)Oc1cccc([N+](C)(C)C)c1 [Neostigmine bromide] | 94.5 ± 32% | –
39 | CN1[C@H]2C[C@H](OC(=O)[C@H](CO)c3ccccc3)C[C@@H]1[C@@H](O)C2 | 86.6% | –
40 | CCN(CC)CCOC(=O)C(O)(c1ccccc1)c1ccccc1 | 115% | –
41 | CNC(=O)Oc1ccc2c(c1)[C@]1(C)CCN(C)[C@@H]1N2C [(-)-Physostigmine] | 79.2% | –
42 | CNC(=O)Oc1ccc2c(c1)[C@]1(C)CCN(C)[C@@H]1N2C [Eserine] | – | 63.6
43 | CNC(=O)Oc1ccc2c(c1)[C@]1(C)CCN(C)[C@@H]1N2C [Physostigmine] | 110 ± 10% | –
44 | CNC(=O)Oc1ccc2c(c1)[C@]1(C)CCN(C)[C@@H]1N2C | 92.9% | –
45 | CNC(=O)Oc1ccc2c(c1)[C@]1(C)CCN(C)[C@@H]1N2C [Eserine sulfate, physostigmine sulfate] | 118% | –
46 | CCN(CCCl)Cc1ccccc1Br [DSP-4 hydrochloride] | 89.2% | –
47 | COc1ccc(C(CN(C)C)C2(O)CCCCC2)cc1 (stereo not drawn) | 100% and 81.1% | –
48 | COc1ccc(C(CN(C)C)C2(O)CCCCC2)cc1 (stereo not drawn) [Venlafaxine] | 103 ± 21% | –
49 | COc1ccc(C(CN(C)C)C2(O)CCCCC2)cc1 (stereo not drawn) [Venlafaxine hydrochloride] | 88% | –
50 | CN1CCc2cc3c(cc2C1O)OCO3 (stereo not drawn) | 82% | –

Row | Compound | HMGB1-induced TNF-alpha production (compound concentration: 3 uM) | HMGB1-induced TNF-alpha production [1] [%]
51 | CN1CCc2cc3c(cc2C1O)OCO3 (stereo not drawn) [Hydrastinine hydrochloride] | 82.9% | 84.4
52 | CCNCC(O)c1cccc(O)c1 (stereo not drawn) [Etilefrine hydrochloride] | 89.7% | –
53 | O=c1c(O)c(-c2ccc(O)c(O)c2)oc2c(O)c(O)cc(O)c12 [Gossypetin] | – | 73.9
54 | CCCCC(C#N)(Cn1cncn1)c1ccc(Cl)cc1 (stereo not drawn) [Myclobutanil] | 67.7% | –
55 | CC(N)c1cccc(Cl)c1Cl (racemic) [(±)-2,3-Dichloro-alpha-methylbenzylamine hydrochloride] | 102% | –
56 | COc1ccc(C(=O)c2c(C)n(CCN3CCOCC3)c3ccccc23)cc1 [Pravadoline] | 108% | –
57 | COc1ccc2[nH]cc(C3=CCNCC3)c2c1 | 93% | –
58 | CC(C)(N)Cc1ccccc1 [Phentermine hydrochloride] | 105% | –
59 | CC(C)(N)Cc1ccccc1 | 81.2% | –
60 | CN(CC[C@H](N)CC(=O)N[C@H]1C=C[C@H](n2ccc(N)nc2=O)O[C@@H]1C(=O)O)C(=N)N | 110% | –
61 | C[C@]12CCC(=O)C=C1CC[C@@H]1[C@@H]2CC[C@@]2(C)[C@H]1CC[C@]2(C)O [Methyltestosterone] | 100% | –
62 | CN1[C@@H]2CC[C@H]1C[C@@H](OC(=O)C(CO)c1ccccc1)C2 (stereo partly drawn) [Atropine sulfate] | 91.5% | –
63 | CN1[C@@H]2CC[C@H]1C[C@@H](OC(=O)C(CO)c1ccccc1)C2 (stereo partly drawn) [Atropine sulfate monohydrate] | 117% | –
64 | CN1[C@@H]2CC[C@H]1C[C@@H](OC(=O)C(CO)c1ccccc1)C2 (stereo partly drawn) [Atropine] | 107% | 94.8
65 | CN1[C@@H]2CC[C@H]1C[C@@H](OC(=O)C(CO)c1ccccc1)C2 (stereo partly drawn) | 103% | –
66 | c1ccc(CCCN2CCN(CCOC(c3ccccc3)c3ccccc3)CC2)cc1 | 71.9% | –
67 | CC(C)C[C@H]1C(=O)N2CCC[C@H]2[C@]2(O)O[C@](NC(=O)[C@@H]3C=C4c5cccc6[nH]c(Br)c(c56)C[C@H]4N(C)C3)(C(C)C)C(=O)N12 [Bromocryptine mesylate] | 52.5% | –
68 | CC(C)C[C@H]1C(=O)N2CCC[C@H]2[C@]2(O)O[C@](NC(=O)[C@@H]3C=C4c5cccc6[nH]c(Br)c(c56)C[C@H]4N(C)C3)(C(C)C)C(=O)N12 | 79.4% | –
69 | CC(C)C[C@H]1C(=O)N2CCC[C@H]2[C@]2(O)O[C@](NC(=O)[C@@H]3C=C4c5cccc6[nH]c(Br)c(c56)C[C@H]4N(C)C3)(C(C)C)C(=O)N12 [(+)-Bromocriptine methanesulfonate] | 83.4% | –
70 | CC(C)C[C@H]1C(=O)N2CCC[C@H]2[C@]2(O)O[C@](NC(=O)[C@@H]3C=C4c5cccc6[nH]c(Br)c(c56)C[C@H]4N(C)C3)(C(C)C)C(=O)N12 [Bromocriptine] | 87% | –
71 | C=CCN1CC[C@]23c4c5ccc(O)c4O[C@H]2/C(=N/N=C2\CC[C@@]4(O)[C@H]6Cc7ccc(O)c8c7[C@@]4(CCN6CC=C)[C@H]2O8)CC[C@@]3(O)[C@H]1C5 [Naloxonazine] | 83% | –
72 | C=CCN1CC[C@]23c4c5ccc(O)c4O[C@H]2/C(=N/N=C2\CC[C@@]4(O)[C@H]6Cc7ccc(O)c8c7[C@@]4(CCN6CC=C)[C@H]2O8)CC[C@@]3(O)[C@H]1C5 [Naloxonazine dihydrochloride] | 102% | –
73 | COc1cc(C(O)CN)ccc1O (racemic) [(±)-Normetanephrine hydrochloride] | 121% | –
74 | CCC1=C[C@H]2CN3CCc4c([nH]c5ccccc45)[C@](C(=O)OC)(C2)[C@H]13 [Catharanthine] | 88.5% | –
75 | O=C(Cc1ccc(Cl)c(Cl)c1)N1CCCCC1CN1CCCC1 (stereo not drawn) | 104% | –
